{"source": "the supplement of paper PMC10663445", "note": "Structures can show the parent of a compound that is named as a salt. This is one part of the list. Repeats are few or missing, and single values can be far off.", "data": [{"test_system": "hsa-miR-132-3p", "test": "miR-132-3p level in NGN2-iNs after compound treatment (TMM-normalised, ComBat batch-corrected) (batch-corrected normalised expression (arbitrary units)); higher = higher miR-132-3p expression", "details": "10 µM; 24 h; human iPSC-derived NGN2 neurons (BR43)", "values": [{"compound": "O=C1c2c(O)cc(O)cc2O[C@H](c2cc(O)c(O)c(O)c2)[C@H]1O", "note": "[Dihydromyricetin]", "miR-132-3p level in NGN2-iNs": -0.487}, {"compound": "C[C@H]1[C@H](OC(=O)CCC(=O)O)O[C@@H]2O[C@@]3(C)CC[C@H]4[C@H](C)CC[C@@H]1[C@@]24OO3", "note": "[Artesunate]", "miR-132-3p level in NGN2-iNs": -0.536}, {"compound": "CC(NC(=O)Cc1cc(F)cc(F)c1)C(=O)NC1C(=O)N(C)c2ccccc2-c2ccccc21", "note": "(configuration not stated)", "miR-132-3p level in NGN2-iNs": -0.914}, {"compound": "CCOc1cc(N)c(Cl)cc1C(=O)NCC1CN(Cc2ccc(F)cc2)CCO1", "note": "(configuration not stated) [Mosapride Citrate]", "miR-132-3p level in NGN2-iNs": 0.219}, {"compound": "Cc1cccc(Nc2ccccc2C(=O)O)c1C", "note": "[Mefenamic Acid]", "miR-132-3p level in NGN2-iNs": -0.732}, {"compound": "CCC(C)n1ncn(-c2ccc(N3CCN(c4ccc(OCC5COC(Cn6cncn6)(c6ccc(Cl)cc6Cl)O5)cc4)CC3)cc2)c1=O", "note": "(configuration not stated) [Itraconazole]", "miR-132-3p level in NGN2-iNs": -0.837}, {"compound": "Cc1cc(-c2ccc(CC(=O)Nc3ccc(-c4cccnc4)cc3)cc2)ccn1", "miR-132-3p level in NGN2-iNs": -0.429}, {"compound": "COCCOc1ccc2c(c1)ncn2-c1ccc2cccc(N3CCC(N)CC3)c2n1", "miR-132-3p level in NGN2-iNs": 0.664}, {"compound": "OC[C@H]1O[C@@H](c2ccc(Cl)c(Cc3ccc(O[C@H]4CCOC4)cc3)c2)[C@H](O)[C@@H](O)[C@@H]1O", "miR-132-3p level in NGN2-iNs": 2}, {"compound": "CC1(C)CNc2cc(NC(=O)c3cccnc3NCc3ccncc3)ccc21", "note": "[Motesanib Diphosphate (AMG-706)]", "miR-132-3p level in NGN2-iNs": 0.361}, {"compound": "Oc1cc(O)c(Cl)cn1", "note": "[Gimeracil]", "miR-132-3p level in NGN2-iNs": 1.25}, {"compound": "COC(=O)C1=C(C)NC(C)=C(C(=O)OCC(C)C)C1c1ccccc1[N+](=O)[O-]", "note": "(configuration not stated) [Nisoldipine]", "miR-132-3p level in NGN2-iNs": 0.229}, {"compound": "COc1c2ccoc2cc2oc(=O)ccc12", "note": "[Bergapten]", "miR-132-3p level in NGN2-iNs": -0.131}, {"compound": "Cc1ccccc1C(OCCN(C)C)c1ccccc1", "note": "(configuration not stated) [Orphenadrine Citrate]", "miR-132-3p level in NGN2-iNs": 0.525}, {"compound": "CNCc1cc(-c2ccccc2F)n(S(=O)(=O)c2cccnc2)c1", "note": "[Vonoprazan Fumarate (TAK-438)]", "miR-132-3p level in NGN2-iNs": -1.52}, {"compound": "CN1CCC(=C2c3ccccc3CCc3sccc32)CC1", "note": "[Pizotifen Malate]", "miR-132-3p level in NGN2-iNs": -0.416}, {"compound": "COc1ncc(-c2ccc3nccc(-c4ccnnc4)c3c2)cc1NS(=O)(=O)c1ccc(F)cc1F", "miR-132-3p level in NGN2-iNs": 0.963}, {"compound": "CCCCNc1ccc(C(=O)OCCN(C)C)cc1", "note": "[Tetracaine HCl]", "miR-132-3p level in NGN2-iNs": 0.46}, {"compound": "COc1ccc2cc(-c3nc(-c4ccc([S+](C)[O-])cc4)[nH]c3-c3ccncc3)ccc2c1", "note": "(configuration not stated) [Tie2 kinase inhibitor]", "miR-132-3p level in NGN2-iNs": -1.23}, {"compound": "CCCCCOC(=O)Nc1nc(=O)n([C@@H]2O[C@H](C)[C@@H](O)[C@H]2O)cc1F", "note": "[Capecitabine]", "miR-132-3p level in NGN2-iNs": -0.137}, {"compound": "Nc1ncnc2c1C(=O)N(c1ccc([C@H]3CC[C@H](CC(=O)O)CC3)cc1)CCO2", "miR-132-3p level in NGN2-iNs": -0.113}, {"compound": "CCN1C(=CC(C)=O)Sc2ccc(OC)cc21", "miR-132-3p level in NGN2-iNs": -1.26}, {"compound": "O=C1[C@H](CC[C@H](O)c2ccc(F)cc2)[C@@H](c2ccc(O)cc2)N1c1ccc(F)cc1", "note": "[Ezetimibe]", "miR-132-3p level in NGN2-iNs": 1.02}, {"compound": "Cc1cc(-c2ncc(CC(=O)Nc3ccc(-c4cnccn4)cn3)cc2C)ccn1", "miR-132-3p level in NGN2-iNs": 0.408}, {"compound": "Cc1cnc(C(=O)NCCc2ccc(S(=O)(=O)NC(=O)NC3CCCCC3)cc2)cn1", "note": "[Glipizide]", "miR-132-3p level in NGN2-iNs": -0.123}, {"compound": "CCN1CCN(Cc2ccc(Nc3ncc(F)c(-c4cc(F)c5nc(C)n(C(C)C)c5c4)n3)nc2)CC1", "miR-132-3p level in NGN2-iNs": -1.39}, {"compound": "COCCc1ccc(OCC(O)CNC(C)C)cc1", "note": "(configuration not stated) [Metoprolol Tartrate]", "miR-132-3p level in NGN2-iNs": -0.374}, {"compound": "COc1ccc(CN2CCN(C(c3ccc(F)cc3)c3ccc(F)cc3)CC2)c(OC)c1OC", "note": "[Lomerizine 2HCl]", "miR-132-3p level in NGN2-iNs": -0.0461}, {"compound": "CC(C)Cc1ccc(C(C)C(=O)O)cc1", "note": "(configuration not stated) [Ibuprofen]", "miR-132-3p level in NGN2-iNs": 0.329}, {"compound": "O=c1c(O)c(-c2ccc(O)c(O)c2)oc2cc(O)cc(O)c12", "note": "[Quercetin Dihydrate]", "miR-132-3p level in NGN2-iNs": 2.25}, {"compound": "O=c1c(O)c(-c2ccc(O)c(O)c2)oc2cc(O)cc(O)c12", "note": "[Quercetin]", "miR-132-3p level in NGN2-iNs": 0.176}, {"compound": "Cc1cnc(C(=O)O)c[n+]1[O-]", "note": "[Acipimox]", "miR-132-3p level in NGN2-iNs": -0.98}, {"compound": "O=C(c1cncc(Br)c1)N1CCC(N2CCCC2)CC1", "miR-132-3p level in NGN2-iNs": -0.364}, {"compound": "O=C(O)c1cc(I)ccc1NC(=O)[C@H](Cc1ccccc1)NCc1ccccc1", "miR-132-3p level in NGN2-iNs": -0.388}, {"compound": "CC[N+](CC)(CC)CCOc1cccc(OCC[N+](CC)(CC)CC)c1OCC[N+](CC)(CC)CC", "note": "[Gallamine Triethiodide]", "miR-132-3p level in NGN2-iNs": 0.637}, {"compound": "O=C(O)c1ccccc1", "note": "[Benzoic Acid]", "miR-132-3p level in NGN2-iNs": -0.135}, {"compound": "CC[C@@H]([C@H](C)O)n1ncn(-c2ccc(N3CCN(c4ccc(OC[C@@H]5CO[C@@](Cn6cncn6)(c6ccc(F)cc6F)C5)cc4)CC3)cc2)c1=O", "note": "[Posaconazole]", "miR-132-3p level in NGN2-iNs": 0.175}, {"compound": "CCCCC[C@H](O)/C=C/[C@H]1[C@H](O)CC(=O)[C@@H]1CCCCCCC(=O)O", "note": "[Alprostadil]", "miR-132-3p level in NGN2-iNs": 0.351}, {"compound": "CC(C(=O)O)c1ccc(C(=O)c2cccs2)cc1", "note": "(configuration not stated) [Suprofen]", "miR-132-3p level in NGN2-iNs": 0.504}, {"compound": "CN1CCN(c2nc(C3=C(c4c[nH]c5ccccc45)C(=O)NC3=O)c3ccccc3n2)CC1", "note": "[Sotrastaurin]", "miR-132-3p level in NGN2-iNs": 0.83}, {"compound": "CCOc1ccc(NC(C)=O)cc1", "note": "[Phenacetin]", "miR-132-3p level in NGN2-iNs": -0.0522}, {"compound": "O=C(c1ccc(OCCCc2c[nH]cn2)cc1)C1CC1", "note": "[Ciproxifan Maleate]", "miR-132-3p level in NGN2-iNs": 0.483}, {"compound": "CC(C)[C@H](N)C(=O)OCC(CO)OCn1cnc2c(=O)[nH]c(N)nc21", "note": "(some centres not stated) [Valganciclovir HCl]", "miR-132-3p level in NGN2-iNs": -0.479}, {"compound": "O=c1[nH]c(=O)n([C@H]2C[C@H](O)[C@@H](CO)O2)cc1F", "note": "[Floxuridine]", "miR-132-3p level in NGN2-iNs": 0.0667}, {"compound": "COc1cc(/C=C/C(=O)O)ccc1O", "note": "[Ferulic Acid]", "miR-132-3p level in NGN2-iNs": 1.53}, {"compound": "C[N+]1(C)CCC(=C(c2ccccc2)c2ccccc2)CC1", "note": "[Diphemanil Methylsulfate]", "miR-132-3p level in NGN2-iNs": 1.21}, {"compound": "NS(=O)(=O)c1cc2c(cc1Cl)NCNS2(=O)=O", "note": "[Hydrochlorothiazide]", "miR-132-3p level in NGN2-iNs": 0.353}, {"compound": "O=C(NC1CCOCC1)c1ccc(-c2cc(-c3c[nH]nc3-c3ccccn3)ccn2)cc1", "miR-132-3p level in NGN2-iNs": -0.603}, {"compound": "CN(C)CCc1c[nH]c2ccc(C[C@H]3COC(=O)N3)cc12", "note": "[Zolmitriptan]", "miR-132-3p level in NGN2-iNs": 0.185}, {"compound": "O=C1c2cccc(O)c2C(=O)c2c(O)cc(CO)cc21", "note": "[Aloe-emodin]", "miR-132-3p level in NGN2-iNs": 0.434}, {"compound": "CC(C)(F)C[C@H](N[C@@H](c1ccc(-c2ccc(S(C)(=O)=O)cc2)cc1)C(F)(F)F)C(=O)NC1(C#N)CC1", "note": "[Odanacatib (MK-0822)]", "miR-132-3p level in NGN2-iNs": 0.3}, {"compound": "COc1cc(C)c(/C=C/C(C)=C/C=C/C(C)=C/C(=O)O)c(C)c1C", "note": "[Acitretin]", "miR-132-3p level in NGN2-iNs": -2.85}]}]}
